Reference: patent US20130123281A1, “Compositions and Methods for Inhibition of TBL-1 Binding to Disease-Associated Molecules” (BETA CAT PHARMACEUTICALS, LLC, priority 2011, published 2013)
Structures were worked out from names or drawings and are uncertain.

By UniProt entry, the sequences of proteins in these tests, tags left out.
UniProt O60907, whole entry: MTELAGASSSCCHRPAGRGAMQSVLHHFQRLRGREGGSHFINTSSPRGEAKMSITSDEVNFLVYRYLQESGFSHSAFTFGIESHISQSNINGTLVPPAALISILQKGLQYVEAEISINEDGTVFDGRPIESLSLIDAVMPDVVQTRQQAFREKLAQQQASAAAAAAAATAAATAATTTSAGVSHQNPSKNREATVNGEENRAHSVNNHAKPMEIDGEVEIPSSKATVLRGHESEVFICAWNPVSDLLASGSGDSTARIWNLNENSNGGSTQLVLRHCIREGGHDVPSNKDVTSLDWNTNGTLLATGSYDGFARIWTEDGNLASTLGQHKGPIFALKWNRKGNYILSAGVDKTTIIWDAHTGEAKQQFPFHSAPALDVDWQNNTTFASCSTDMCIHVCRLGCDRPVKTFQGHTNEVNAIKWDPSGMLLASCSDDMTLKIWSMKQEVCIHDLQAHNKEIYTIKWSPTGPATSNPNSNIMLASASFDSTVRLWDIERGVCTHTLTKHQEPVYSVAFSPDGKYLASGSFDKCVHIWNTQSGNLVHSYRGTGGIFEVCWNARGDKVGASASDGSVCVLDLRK

How the values were obtained:
TBL1:β-catenin complex = TBL1:β-catenin complex (Homo sapiens, UniProt O60907); assay: Sandwich ELISA capturing the TBL1:β-catenin complex from treated cell lysates; assay type: cell-based; conditions: read-out: EC50 μM TBL1: β-Catenine, compound 0.3 nM to 3 μM for 6 h
Description: HCT 15 cells are incubated with 20 mM LiCl to induce the Wnt pathway. After 24 h fresh medium with 20 mM LiCl and test agent is added at concentration in the range of 0.3 nM to 3 μM for 6 hours at 37° C. Protein lysates are prepared from cells lysed in RIPA buffer containing protease inhibitors, High affinity binding Sandwich Elisa assays were prepared in 96 well Maxisorp plates (NUNC) by coating with 100 μl in each well of unlabeled capture TBL1 antibody (Santa Cruz Biotech) diluted to a final concentration of 2 ug/ml in carbonate/bicarbonate coating buffer, and incubated 18 hours at 4° C. […] The sealed plate was incubated for 2 h at RT, washed 3 times with PBS 0.05% Tween-20, and then the complex and the recombinant protein was detected by antibody against β-catenin (Cell Signaling Tech) and secondary antibody HRP-conjugated (Sigma). Signal was detected by addition of ABTS HRP substrate
(SIGMA), and read with a microplate reader set to 405 nm.
To determine the amount of β-catenin captured, a standard curve was created using recombinant β-catenin (100 fg to 100 ng, Abnova) added instead of cell lysates in the above procedure. Intensity of signal was compared to values generated using test article treated lysates and approximate amount of bound beta catenin determined. […]

TBL1 = TBL1 (Homo sapiens, UniProt O60907); assay: TBL1 inhibition (Table 5); assay type: binding; conditions: read-out: EC50 μM TBL1
Description: Briefly, for homologous competitive assay, a single concentration of 50 nM of biotinylated compound was added to the wells containing TBL1 recombinant protein, in the presence of various concentrations of unlinked compound (range of 0.1 nM to 10 μM) diluted in binding buffer. The sealed plate was incubated for 2 h at RT, and then processed as described above. For the heterologous competitive binding assay, 75 nM of β-catenin was used in place of the biotinylated compound, and the bounded protein was detected by anti-β-catenin antibody (Cell Signaling Tech) followed by secondary HRP-conjugated antibody.
To determine whether the ability of BC2059 to interfere with TBL1:β-catenin complex formation is due to direct interaction between TBL1 or β-catenin and the compound, we performed saturation binding assays in a in vitro system. […] The sealed plate was incubated for 2 h at RT, washed 3 times with PBS 0.05% Tween-20, and then the bounded compound was detected by streptavidin-HRP conjugated antibody (Cell Signaling Tech) diluted in blocking buffer. Elisa was developed by addition of ABTS HRP substrate (SIGMA), and the optical density (OD) for each well was read with a microplate reader set to 405 nm. […]

HCT116 cells = assay: Cell screening in HCT116 cells (Table 5); assay type: cell-based; conditions: read-out: EC50 μM HCT116 CELLS

## Cc1nn(C)cc1-c1cccc(N(C)Cc2ccc(-n3cccn3)cc2)c1
TBL1:β-catenin complex
  EC50: 0.21 µM
TBL1
  EC50: 0.22 µM
HCT116 cells
  EC50: 0.0843 µM
